# Library screening results

Source: ChEMBL document CHEMBL3988442, “University of Dundee, Small-Polar-MMV Screening Library” (2021).

Mtb growth Cornell: 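Whole-cell assay for inhibitors of Mycobacterium tuberculosis growth, labelled Cornell in the record; the read-out is not stated. The concentration is filed as 10 mM, unlikely as a test dose, so the dose is not known. Higher means stronger inhibition (inferred from two other growth screens of the library). Size under these conditions: about 53,000 compounds, about 900 of them at 50% or above in at least one test.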
Mtb heat-shock: 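Assay on Mycobacterium tuberculosis, filed only as a heat shock assay from Cornell; the read-out is not stated. The concentration is filed as 10 mM, unlikely as a test dose, so the dose is not known. The record gives no direction; compounds that gave an IC50 in retests scored well above the rest, so higher reads as stronger inhibition. About 69,000 compounds were tested under these conditions; 1.4% (about 930) showed 50% or more at least once.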

Values are the deposited “Percent Effect”, in %.
How 0% and 100% were set is not recorded. Most values in the screen are low, and negative values occur.
Compounds were drawn at random from those tested, without regard to their results.
A dash means the value is not listed here; it may have been measured.

Compound	Mtb growth Cornell	Mtb heat-shock
Cc1c(Br)cccc1CNC1(CCO)CCOCC1	-9.411%	4.555%
CNS(=O)(=O)CCCN1CCCN(Cc2ccccc2)CC1C (stereo not drawn)	-	1.615%
CCOCCCNC(=O)c1cc(Br)c2c(c1)OCCO2	25.21%	5.238%
CN(Cc1nc(COc2ccccc2)no1)CC1Cc2ccccc2O1 (stereo not drawn)	28.23%	29.18%
Cc1ccc(CN(CCN(C)C)Cc2c(C)nc3sccn23)o1.O=C(O)CC(O)(CC(=O)O)C(=O)O	26.14%	-10.27%
O=C(c1ccc(O)nc1)N1CCC(Nc2cccnn2)CC1	-	8.784%
COc1cccc(CC(=O)N2CCCC2c2nc(C)c(C)c(O)n2)c1 (stereo not drawn)	-12.96%	2.732%
Cc1nc(CC(=O)N2c3ccccc3OCC2C)cs1 (stereo not drawn)	-	2.334%
O=S(=O)(N1CCN(CC2CC2)CC1)N1CCCC1c1ccco1 (stereo not drawn)	17.3%	-29.21%
CC(=O)N1CCN(C(=O)NCCCN(C(C)C)S(C)(=O)=O)CC1	-	8.928%
COC(=O)CC(c1cccc(OC(F)F)c1)c1oc(C)cc(=O)c1O (stereo not drawn)	9.464%	1.249%
CNc1cnc(CC2COCCN(Cc3ccccc3)C2)cn1 (stereo not drawn)	17.11%	9.03%
O=C(O)C(F)(F)F.[H][C@@]12COC[C@]1(C(=O)NCCc1cccs1)CN(c1ncccn1)C2	-78.67%	11.14%
O=C(c1cnc(OCC(F)(F)F)c(Cl)c1)N1CCc2ccc(O)cc2C1	37.51%	-23.21%
Cc1cnc(CN(C)C2CCN(Cc3nc4ccccc4s3)C2)o1 (stereo not drawn)	-10.19%	-20.81%
Cc1ccc(C(=O)N2CC[C@@]3(C[C@@H](NS(C)(=O)=O)CCO3)C2)s1	6.984%	2.594%
O=S(=O)(CCCN1CCCC1Cn1cncn1)c1ccccc1 (stereo not drawn)	5.292%	16.03%
Cc1n[nH]c(C)c1C1COCCN1C(=O)c1cccc(F)c1F (stereo not drawn)	-	7.346%
O=C1NC2(Cc3ccccc31)CN(CC1CCNC1)C2 (stereo not drawn)	-	-29.15%
c1cnc(N2CCC(c3csc(Nc4cnccn4)n3)CC2)nc1	78.58%	15.95%
CN1CCN(S(=O)(=O)c2ccccc2)Cc2cccnc21.O=C(O)C(F)(F)F	-9.961%	19.11%
CC(C)CNc1nnc(SC(C(=O)NCc2cccnc2)C(C)C)s1 (stereo not drawn)	-	-12.76%
O=C(Nc1cccn(Cc2ccccc2)c1=O)c1ccncc1F	-9.357%	-5.843%
Cl.c1cnc2c(c1)cc([C@H]1CCCO1)n2CCN1CCCC1	5.654%	-0.1989%
Cn1ccc(CN2CCC(Cc3ccccc3)CC2)cc1=O	-	2.102%
Cc1ncsc1CCC(=O)N1CCn2cccc2C1c1cccnc1 (stereo not drawn)	16.68%	6.303%
O=C(O)C(F)(F)F.O=C(O)C(F)(F)F.O=C1NC2(CCN(Cc3ccsc3)CC2)CC1c1ccncc1 (stereo not drawn)	7.165%	-18.29%
O=C(O)C(F)(F)F.O=C(O)C(F)(F)F.[H][C@@]12C[C@@H](OCc3ccccc3)CN1CCN(Cc1nccn1C)C2	16.47%	-29.28%
Cc1cc(N2CCC(NC(C)Cc3ccsc3)CC2)nc(N)n1 (stereo not drawn)	-1.813%	-27.17%
CCOc1ccc(C#N)cc1NCC(=O)Nc1cc(F)ccc1F	6.955%	23.29%
Cc1noc(C)c1CN(C)C(=O)c1cnc(C2CC2)nc1O	-54.49%	-10.03%
COc1ccc(N2CCC(N(C)C(=O)C(C)SC)CC2)cc1 (stereo not drawn)	3.234%	-3.655%
CCc1noc(CN2CCN(Cc3cccs3)CC2)n1	-	8.172%
O=C(O)C(F)(F)F.[H][C@@]12COC[C@]1([H])[C@@H](OCC1CC1)CN2Cc1nccs1	-20.69%	38.37%
COCCOCC(=O)Nc1nc2c(OC)cc(F)cc2s1	5.074%	10.98%
COc1ccc(CNCC2CN(C3CC3)CCO2)cc1F (stereo not drawn)	32.5%	-10.46%
CN1CCC(N[C@@H]2CO[C@H](CNC(=O)c3cccs3)[C@H]2O)CC1	-	-10.49%
Cc1noc(CN(C)CC2(O)CCCN(CCC3CCCCC3)C2=O)n1 (stereo not drawn)	26.22%	-19.68%
Cc1ccc(-c2n[nH]cc2CNCC2CCN(CC(F)(F)F)C2)o1.Cl (stereo not drawn)	5.489%	-40.51%
c1cc2c(cc1C[C@@H]1CC[C@H](CN3CCCOCC3)O1)OCO2	13.82%	8.415%
COc1ccc(Cl)cc1S(=O)(=O)N(C)CC(=O)Nc1ccon1	9.254%	7.681%
Cc1cc(NC(=O)CN2CCC(N(C)Cc3ncc(C)o3)C2)n(C)n1 (stereo not drawn)	-	-18.12%
O=C(c1ccc[nH]1)N1CCN(C(c2ccccc2)C(F)(F)F)CC1 (stereo not drawn)	-2.746%	-7.543%
COCCCC1CCCCN1Cc1cc(F)ccc1-n1cccn1 (stereo not drawn)	-10.53%	-27.32%
COCCN1CCC(CNC(=O)C2(c3ccc(Br)cc3)CCCC2)C1 (stereo not drawn)	15.91%	-2.527%
Cc1nccn1CCN(C)C(=O)C1CCN(C(=O)C2CCC2)CC1	-0.8724%	-15.39%
CC(Oc1ccc2c(c1)OCO2)C(=O)N1CCC(N2CCCC2)CC1 (stereo not drawn)	10.32%	0.03206%
O=C(CCCNc1ncccn1)N1CCCC(n2cccn2)C1 (stereo not drawn)	-	-16.85%
Cc1nc(CN2CCOC(Cn3cncn3)C2)nc2ccccc12 (stereo not drawn)	-	2.011%
CCc1cc(CNC(=O)C2CCC(=O)N(Cc3ccccc3F)C2)on1 (stereo not drawn)	11.38%	8.901%
[H][C@@]12CN(CCOC)C[C@]1([H])OCCN2c1ccnc(N(C)C)n1	2.176%	-3.294%
[H][C@@]12CCN(Cc3cc(C)on3)C[C@@]1([H])O[C@@H](C(=O)N(C)C)C2	-9.792%	-3.208%
COc1ccc(N2CCN(C(=O)c3nc(Cl)sc3C(C)C)CC2)cc1	40.3%	-0.638%
CC(=O)Nc1nc2c(s1)CN(CC(=O)Nc1ccc(C)c(Cl)c1)CC2	2.678%	35.41%
CC(C)Cc1cc(C(=O)NCCc2nnc(N)s2)n(C)n1	-	6.192%
COc1ccc(C2CN(c3cc(C)ncn3)CCN2C(C)=O)cc1 (stereo not drawn)	-53.77%	11.74%
CC(=O)NCC1CCN(c2cc(C)nc(-c3ccncc3)n2)CC1	-	-29.93%
CCN(CC)c1ccc(NS(=O)(=O)c2cncc(F)c2)cn1	62.74%	-17.45%
Cc1ccc(CN(C)C(=O)c2n[nH]c(N)c2-c2ccccc2)o1	-19.21%	-6.81%
O=C(N1CCCC1)N1CCC2(CCCN(CCOc3ccccc3)C2)C1.O=C(O)C(F)(F)F (stereo not drawn)	-7.098%	-23.47%
O=C(O)c1ccccc1C1CCN(C2CCN(c3ccccc3)CC2)C1 (stereo not drawn)	-	19.22%
CN(Cc1cc[nH]n1)C(=O)C1CC(=O)N(Cc2ccncc2)C1 (stereo not drawn)	-	21.69%
c1ccc2sc(CN3CCOC(Cn4cncn4)C3)nc2c1 (stereo not drawn)	7.519%	14.6%
Cc1cc(CNC(=O)COc2ccccc2F)c(C)o1	19.34%	-3.395%
Cc1nccn1-c1cc(CNC(=O)c2ccnc(N(C)C)c2)ccn1	10.95%	-9.572%
O=C(c1ccc2c(c1)CCC2)N1CCN(c2ccc(Cl)cn2)CC1	-27.32%	-1.505%
CCC(=O)Nc1cccc(OCC(=O)N(C)Cc2cc(COC)[nH]n2)c1	-	3.087%
O=S(=O)(C1CC1)N1CCOC2(COCCN(c3ncccn3)C2)C1 (stereo not drawn)	-8.023%	-7.518%
O=C(NC1CCOCC1)C1CC(=O)N(Cc2ccccn2)C1 (stereo not drawn)	-27.27%	8.651%
CNC(=O)c1ccc2c(OC)n(C)nc2c1	8.682%	6.208%
CCOCC(O)CN1CCN(C(=O)c2cccc(F)c2)CC1 (stereo not drawn)	-	3.081%
CC(NC(=O)COc1ccccc1Cl)c1nnc2n1CCC2 (stereo not drawn)	-11.91%	0.06241%
CN(C)C(=O)N1CC2(CCOCC2)c2cc(NC(=O)CCO)ccc21	18.78%	4.716%
Cc1cccc(C(=O)N2CCCSCC2CN2CCCC2)c1 (stereo not drawn)	-	-21.83%